Test results reported in PubChem BioAssay AID485314 (National Center for Advancing Translational Sciences (NCATS), 2010).
In all, about 340,000 compounds went through this assay and about 4,500 (1.3%) were called active. Inconclusive results, whose numbers are uncertain, are shown with a selection of clear calls. Calls come from the whole dose curve; as a rule, active = well fitted inhibition curve with a large enough effect; inconclusive = small, poorly fitted or top-dose-only effect, or another doubt; inactive = no such curve, though single readings can be large or run the other way. Where the call is inconclusive, the potency comes from a doubtful curve fit.

Molecular target: DNA polymerase beta (Homo sapiens) (UniProt P06746)
Experiment: qHTS Assay for Inhibitors of DNA Polymerase Beta
Conditions: Pol beta primer extension/strand displacement, fluorescence kinetic; activity change, negative = inhibition: at 114 µM (top of the series)
Procedure, shortened: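 10 nM enzyme + cpd, 15 min RT; start with substrate 50 nM final; read 0 min and after 10 min RT. Corrected, normalized data; 4-parameter Hill curve fit.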
% is set by controls: 0 for no effect and ±100 for the full control effect; potency is the fitted concentration of half-maximal effect.

Structure (SMILES)	Potency	activity change, negative = inhibition
Cc1nc(C)c(-c2csc(Nc3ncccc3C)n2)s1	inconclusive: 100 µM [inhibitor, single point]	–
COc1cccc(/C=C2\N=C(c3c(-c4ccccc4)noc3C)OC2=O)c1	inconclusive: 89.1 µM [inhibitor, single point]	–
O=C(CN1C2=NCCCN2c2ccccc21)c1cccc(Br)c1	inconclusive: 3.16 µM [inhibitor, single point]	–
CS(=O)(=O)N(CC(=O)N1CCCC1)Cc1ccccc1	inconclusive: 3.16 µM [inhibitor, full curve]	–
COc1ccc(C(=O)/C=C/c2ccc(OC3CSC3)cc2)cc1OC	inconclusive: 79.4 µM [inhibitor, single point]	–
Cc1oc2c(c(C)cc3oc(=O)c(CC(=O)NCCc4ccccc4)c(C)c32)c1C	–	inactive: 13.2%
COC(=O)CSc1cc(C)nc2ccc(OC)cc12	–	inactive: 4.6%
COc1ccc(Nc2ncnc3sc(-c4ccccc4)cc23)c(OC)c1	inconclusive: 39.8 µM [inhibitor, single point]	–
COc1ccccc1NC(=O)c1c(NCc2ccc(OC)c(OC)c2OC)sc2c1CCCC2	inconclusive: 89.1 µM [inhibitor, single point]	–
CC[n+]1c(/C=C/c2ccc(N(C)C)cc2)ccc2ccccc21	active: 28.2 µM	–
O=c1[nH]c(/C=C/c2ccccc2)c([N+](=O)[O-])c(=O)[nH]1	inconclusive: 89.1 µM [inhibitor, single point]	–
Cc1ccc(S(=O)(=O)c2nc(-c3ccccc3)oc2NCc2cccnc2)cc1	inconclusive: 89.1 µM [inhibitor, single point]	–
Cc1nc(SCC(=O)OCc2ccccc2)c(C#N)c(-c2ccccc2)c1C(=O)Nc1ccccc1	inconclusive: 0.708 µM [inhibitor, full curve, poor fit]	–
Cc1nc(NC(=O)COC(=O)CCS(=O)(=O)c2ccccc2Cl)c(Cl)cc1Cl	inconclusive: 10 µM [inhibitor, partial curve]	–
CN(C)/C=C/C(=O)/C=C/c1ccc(Cl)cc1Cl	inconclusive: 89.1 µM [inhibitor, single point]	–
CCOc1ccc(-c2nc(SCC(=O)Nc3ccc4c(c3)OCO4)c(-c3ccc(F)cc3)[nH]2)cc1	inconclusive: 89.1 µM [inhibitor, single point]	–
CCC(=O)N1c2ccccc2CC1C(=O)NCc1ccc(OC(C)C)cc1 (centres undefined)	inconclusive: 89.1 µM [inhibitor, single point]	–
CN1C(=O)/C(=C/c2ccc(OCc3ccc(C(=O)O)cc3)c(Cl)c2)NC1=S	active: 35.5 µM	–
COc1cccc2c(=O)c(C(=O)NCc3cccs3)c[nH]c12	inconclusive: 35.5 µM [inhibitor, partial curve]	–
O=C(Cn1c(C(=O)NCc2ccco2)cc2sccc21)c1ccccc1	inconclusive: 79.4 µM [inhibitor, single point]	–
NC(=O)c1ccsc1NC(=O)COC(=O)CCOc1ccccc1	inconclusive: 17.8 µM [inhibitor, full curve, poor fit]	–
Cc1cnc(NC(=O)CSc2nnc(Cc3ccccc3)o2)s1	–	inactive: -0.688%
O=C(NNC(=O)c1ccc(Br)o1)c1ccc(NC(=O)c2ccccc2)cc1	inconclusive: 25.1 µM [inhibitor, full curve]	–

Structure (SMILES)	Potency	activity change, negative = inhibition
CS(=O)(=O)N(CC(=O)N1CCN(c2ccccc2)CC1)c1cccc(Br)c1	–	inactive: -13.6%
COc1cccc(-n2c(=O)n(Cc3ccccc3)c(=O)c3[nH]cnc32)c1	–	inactive: -25.7%
C=CCN1C(=O)/C(=C/c2ccc(OCC(=O)O)cc2)S/C1=N/c1nccs1	inconclusive: 89.1 µM [inhibitor, single point]	–
CCc1ccc(OCCOCC(O)CNC(C)CC)cc1 (centres undefined)	inconclusive: 39.8 µM [inhibitor, single point]	–
CCCCN(CCCC)C(=O)c1cc2c(=O)n3cccc(C)c3nc2s1	inconclusive: 89.1 µM [inhibitor, single point]	–
COC(=O)c1ccc(OC(=O)CCc2cc(OC)c(OC)c(OC)c2)cc1	–	inactive: -10.8%
Cc1ccc(NC(=O)NCCc2c(C)nn(C)c2C)cc1Cl	inconclusive: 89.1 µM [inhibitor, single point]	–
COc1ccc(-c2nc3ccc(N4CCCC4)cc3c(=O)[nH]2)cc1OC	active: 39.8 µM	–
COc1ccc(CCCc2nnc(SCc3nc4ccccc4c(=O)[nH]3)n2C)c(C)c1	inconclusive: 0.794 µM [inhibitor, full curve, poor fit]	–
COc1ccc(N(C)C(=O)c2cn(C3CCCCC3)c(=O)c3c2c2ccccc2n3C)cc1	inconclusive: 89.1 µM [inhibitor, single point]	–
COC(=O)c1c(NC(=O)c2ccc(C)cc2)csc1C	inconclusive: 89.1 µM [inhibitor, single point]	–
COc1ccc(-c2cc3ccc(O)c(CN4CCOCC4)c3oc2=O)cc1OC	–	inactive: 4.53%
CCOC(=O)c1ccccc1NC(=O)c1cncc(Br)c1	inconclusive: 89.1 µM [inhibitor, single point]	–
Cc1nn(-c2ccccc2)c2c1C1(C(=O)N3c4c(cccc41)C(C)CC3(C)C)C(C#N)=C(N)O2 (centres undefined)	inconclusive: 89.1 µM [inhibitor, single point]	–
Cn1c(=O)[nH]c(=O)c2c1nc([N+](=O)[O-])n2Cc1ccccc1	inconclusive: 79.4 µM [inhibitor, single point]	–
CCC(=C(c1ccc(OC)cc1)c1ccc(OC)cc1)c1cn(CC(O)CN(CCO)CCO)c2ccccc12 (centres undefined)	inconclusive: 12.6 µM [inhibitor, partial curve]	–
CCOc1ccc(CCNC(=O)C2CC(C)=CCC2C(=O)O)cc1OCC (centres undefined)	active: 25.1 µM	–
Cc1ccc(CNC(=O)c2ccc(Cn3nc(C)c(Cl)c3C)o2)cc1	active: 50.1 µM	–
Cc1[nH][nH]c(=O)c1C(c1ccc(-c2ccc(Cl)cc2Cl)o1)c1c(C)[nH][nH]c1=O	inconclusive: 14.1 µM [inhibitor, partial curve, poor fit]	–
CCOC(=O)c1c(S(=O)(=O)N2CCCC(C(=O)Nc3cccc(Cl)c3)C2)c(C)n(C)c1C (centres undefined)	–	inactive: 11.2%
CC1(C)CC(N2CCN(Cc3ccccc3)CC2)=CC(=[N+]2CCCCC2)C1	–	inactive: 27.4%
CCC(=O)NC1=C(Nc2ccc(N)cc2)C(=O)c2ccccc2C1=O	–	inactive: 2.99%

Structure (SMILES)	Potency	activity change, negative = inhibition
CCCCN(CC)CCCNC(=O)CCN1N=C(c2ccc(OC)cc2)CCC1=O	–	inactive: 6.36%
O=S(=O)(Nc1nc2ccccc2nc1Nc1ccc2c(c1)OCCO2)c1cccs1	active: 17.8 µM	–
Cc1cc2nc3c(nc2cc1C)C(O)=C3O	–	inconclusive: -45.9% [inhibitor]
Cc1ccc(-c2cc(C(=O)N/N=C/c3c(C)nn(-c4ccccc4)c3C)[nH]n2)cc1	inconclusive: 50.1 µM [inhibitor, partial curve]	–
CCOC(=O)CNC(=O)CSc1nnc(NC(=O)c2ccc3c(c2)OCO3)s1	inconclusive: 0.251 µM [inhibitor, full curve, poor fit]	–
O=C(/C=C/N1CCOCC1)c1ccc(-c2ccccc2)cc1	inconclusive: 56.2 µM [inhibitor, single point]	–
O=C(Cn1cnc2ccccc21)N/N=C/C(Br)=C/c1ccccc1	inconclusive: 20 µM [inhibitor, full curve]	–
O=C(Nc1ccc(S(=O)(=O)Nc2ncccn2)cc1)c1cccc(S(=O)(=O)N2CCCC2)c1	–	inconclusive: -37.6% [inhibitor]
C=C(C)c1cccc(C(C)(C)NC(=O)Nc2cccnc2)c1	inconclusive: 2 µM [inhibitor, partial curve, poor fit]	–
COc1cc2c(cc1OC)-c1c(OC)c(OC)cc3ccnc(c13)C2=O	inconclusive: 12.6 µM [inhibitor, partial curve]	–
CCOC(=O)c1sc(N2C(=O)C(O)=C(C(=O)c3ccco3)C2c2cccc([N+](=O)[O-])c2)nc1C (centres undefined)	–	inactive: 0.738%
COc1ccc(/C=C/C(=O)NCCNC(=O)c2ccccc2)cc1OC	inconclusive: 89.1 µM [inhibitor, single point]	–
CCOc1c2ccc(C(=O)NCC34CC5CC(CC(C5)C3)C4)cc2nn1CC	inconclusive: 7.08 µM [inhibitor, full curve, poor fit]	–
O=C1/C(=C/C=C/c2ccco2)SC(=S)N1c1ccc(O)cc1	active: 3.16 µM	–
CCOC(=O)C1CCc2sc(N)c(C#N)c21 (centres undefined)	–	inactive: 9.21%
C(=C\c1ccco1)/C1=NN(c2ccccc2)C(c2ccco2)C1 (centres undefined)	inconclusive: 6.31 µM [inhibitor, partial curve]	–
COc1cc(OC)c(NC(=O)Cn2c(=O)oc3cc(S(=O)(=O)N4CCCC4)ccc32)cc1Cl	–	inactive: -17.8%
CC(=O)c1ccc(NC(=O)CN2CCN(CC(=O)Nc3ccc(C(C)=O)cc3)CC2)cc1	–	inactive: 8.1%
Cc1ccc(/C=C/c2onc(C)c2S(=O)(=O)N2CCC(C(=O)NCC(C)c3ccccc3)CC2)cc1 (centres undefined)	–	inactive: -1.83%
COc1ccc(-n2c(O)c(/C=N/NS(=O)(=O)c3cc(C)ccc3C)c3ccccc3c2=O)cc1OC	inconclusive: 3.98 µM [inhibitor, full curve, poor fit]	–
Cc1nc2ccn(Cc3cccs3)c(=O)c2cc1C(=O)Nc1ccccc1	–	inactive: -6.6%
O=C(Nc1ccccc1)NC1(C(=O)NCc2cccs2)CCCCC1	inconclusive: 50.1 µM [inhibitor, partial curve]	–
CCOC(=O)c1cnc(Cc2ccccc2)[nH]c1=O	–	inactive: 0.754%

Molecules above with a COOH group (three):
Structure (SMILES)	Potency	activity change, negative = inhibition
CN1C(=O)/C(=C/c2ccc(OCc3ccc(C(=O)O)cc3)c(Cl)c2)NC1=S	active: 35.5 µM	–
C=CCN1C(=O)/C(=C/c2ccc(OCC(=O)O)cc2)S/C1=N/c1nccs1	inconclusive: 89.1 µM [inhibitor, single point]	–
CCOc1ccc(CCNC(=O)C2CC(C)=CCC2C(=O)O)cc1OCC (centres undefined)	active: 25.1 µM	–
